From patent publication US20130116146A1 (University of California, published 2013)
Results are given in words; binding and its absence hold for the method and conditions named. Where a sequence is shown, tags or fusion partners need not be part of it.

Molecular target: T1, Polycomb protein chromodomain (a.a. 1-90), GST-tagged fusion protein (Drosophila melanogaster) (UniProt P26017)
T1 sequence (looked up): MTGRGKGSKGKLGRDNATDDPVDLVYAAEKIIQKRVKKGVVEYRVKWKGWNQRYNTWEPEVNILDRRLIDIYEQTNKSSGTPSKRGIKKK
Experiment: peptide microarray, GST-Polycomb chromodomain overlaid on trimethylated peptides printed in triplicate

Binder | binding
GVIPHIHKS (trimethyl-lysine at lysine site 115 (8th residue of the peptide)) […, H2AV_DROME lysine site 115, trimethylated] | no binding (tested: p-value cutoff of 0.001)
GKDSGKAKA (trimethyl-lysine at lysine site 13 (8th residue of the peptide)) […, H2AV_DROME lysine site 13, trimethylated] | no binding (tested: p-value cutoff of 0.001)
EETRGVLKV (trimethyl-lysine at lysine site 59 (8th residue of the peptide)) […, H4_DROME lysine site 59, trimethylated] | no binding (tested: p-value cutoff of 0.001)
PSTGGVKKP (trimethyl-lysine at lysine site 37 (8th residue of the peptide)) […, H33_DROME lysine site 37, trimethylated] | no binding (tested: p-value cutoff of 0.001)
GNAARDNKK (trimethyl-lysine at lysine site 73 (8th residue of the peptide)) […, H2A_DROME lysine site 73, trimethylated] | no binding (tested: p-value cutoff of 0.001)
ELAGNASKD (trimethyl-lysine at lysine site 74 (8th residue of the peptide)) […, H2AV_DROME lysine site 74, trimethylated] | no binding (tested: p-value cutoff of 0.001)
TGGKAPRKQ (trimethyl-lysine at lysine site 18 (8th residue of the peptide)) […, H3_DROME lysine site 18, trimethylated] | no binding (tested: p-value cutoff of 0.001)
RNDEELNKL (trimethyl-lysine at lysine site 94 (8th residue of the peptide)) […, H2A_DROME lysine site 94, trimethylated] | no binding (tested: p-value cutoff of 0.001)
REIAQDFKT (trimethyl-lysine at lysine site 79 (8th residue of the peptide)) […, H3_DROME lysine site 79, trimethylated] | no binding (tested: p-value cutoff of 0.001)
PATGGVKKP (trimethyl-lysine at lysine site 37 (8th residue of the peptide)) […, H3_DROME lysine site 37, trimethylated] | no binding (tested: p-value cutoff of 0.001)
EELDSLIKA (trimethyl-lysine at lysine site 101 (8th residue of the peptide)) […, H2AV_DROME lysine site 101, trimethylated] | no binding (tested: p-value cutoff of 0.001)
IYIYKVLKQ (trimethyl-lysine at lysine site 43 (8th residue of the peptide)) […, H2B_DROME lysine site 43, trimethylated] | no binding (tested: p-value cutoff of 0.001)
LARRGGVKR (trimethyl-lysine at lysine site 44 (8th residue of the peptide)) […, H4_DROME lysine site 44, trimethylated] | no binding (tested: p-value cutoff of 0.001)
GLGKGGAKR (trimethyl-lysine at lysine site 16 (8th residue of the peptide)) […, H4_DROME lysine site 16, trimethylated] | no binding (tested: p-value cutoff of 0.001)
IHKSLIGKK (trimethyl-lysine at lysine site 120 (8th residue of the peptide)) […, H2AV_DROME lysine site 120, trimethylated] | no binding (tested: p-value cutoff of 0.001)
NAARDNKKT (trimethyl-lysine at lysine site 74 (8th residue of the peptide)) […, H2A_DROME lysine site 74, trimethylated] | no binding (tested: p-value cutoff of 0.001)
PDTGISSKA (trimethyl-lysine at lysine site 54 (8th residue of the peptide)) […, H2B_DROME lysine site 54, trimethylated] | no binding (tested: p-value cutoff of 0.001)

Binder | binding
APSTGGVKK (trimethyl-lysine at lysine site 36 (8th residue of the peptide)) […, H33_DROME lysine site 36, trimethylated] | no binding (tested: p-value cutoff of 0.001)
APATGGVKK (trimethyl-lysine at lysine site 36 (8th residue of the peptide)) […, H3_DROME lysine site 36, trimethylated] | no binding (tested: p-value cutoff of 0.001)
HAVSEGTKA (trimethyl-lysine at lysine site 113 (8th residue of the peptide)) […, H2B_DROME lysine site 113, trimethylated] | no binding (tested: p-value cutoff of 0.001)
DNIQGITKP (trimethyl-lysine at lysine site 31 (8th residue of the peptide)) […, H4_DROME lysine site 31, trimethylated] | no binding (tested: p-value cutoff of 0.001)
KRVTIMPKD (trimethyl-lysine at lysine site 122 (8th residue of the peptide)) […, H3_DROME lysine site 122, trimethylated] | no binding (tested: p-value cutoff of 0.001)
YTEHAKRKT (trimethyl-lysine at lysine site 79 (8th residue of the peptide)) […, H4_DROME lysine site 79, trimethylated] | no binding (tested: p-value cutoff of 0.001)
KAGKDSGKA (trimethyl-lysine at lysine site 11 (8th residue of the peptide)) […, H2AV_DROME lysine site 11, trimethylated] | no binding (tested: p-value cutoff of 0.001)
GNASKDLKV (trimethyl-lysine at lysine site 77 (8th residue of the peptide)) […, H2AV_DROME lysine site 77, trimethylated] | no binding (tested: p-value cutoff of 0.001)
ARKSTGGKA (trimethyl-lysine at lysine site 14 (8th residue of the peptide)) […, H3_DROME lysine site 14, trimethylated] | no binding (tested: p-value cutoff of 0.001)
KGGKGLGKG (trimethyl-lysine at lysine site 12 (8th residue of the peptide)) […, H4_DROME lysine site 12, trimethylated] | no binding (tested: p-value cutoff of 0.001)
MAGGKAGKD (trimethyl-lysine at lysine site 7 (8th residue of the peptide)) […, H2AV_DROME lysine site 7, trimethylated] | no binding (tested: p-value cutoff of 0.001)
QAVLLPKKT (trimethyl-lysine at lysine site 118 (8th residue of the peptide)) […, H2A_DROME lysine site 118, trimethylated] | no binding (tested: p-value cutoff of 0.001)
SRLAHYNKR (trimethyl-lysine at lysine site 82 (8th residue of the peptide)) […, H2B_DROME lysine site 82, trimethylated] | no binding (tested: p-value cutoff of 0.001)
STELLIRKL (trimethyl-lysine at lysine site 64 (8th residue of the peptide)) […, H3_DROME lysine site 64, trimethylated] | no binding (tested: p-value cutoff of 0.001)
VTYTEHAKR (trimethyl-lysine at lysine site 77 (8th residue of the peptide)) […, H4_DROME lysine site 77, trimethylated] | no binding (tested: p-value cutoff of 0.001)
NLCAIHAKR (trimethyl-lysine at lysine site 115 (8th residue of the peptide)) […, H3_DROME lysine site 115, trimethylated] | no binding (tested: p-value cutoff of 0.001)
LLPGELAKH (trimethyl-lysine at lysine site 105 (8th residue of the peptide)) […, H2B_DROME lysine site 105, trimethylated] | no binding (tested: p-value cutoff of 0.001)
